# Measurements published in the supplement of paper PMC6418307.
# Where a name gives a salt, the structure may show the parent alone. Single values of this set are uncertain.
# System: primary mouse cortical neurons
# Assay: cell health score (luciferase spike-in reads / total reads per well) (fraction); higher = fewer cellular reads, worse cell health / toxicity
# Details: treatment time 24 h
# [1] = 0.01 µM, sex of neuron culture: Female
# [2] = 0.01 µM, sex of neuron culture: Male
# [3] = 0.1 µM, sex of neuron culture: Female
# [4] = 0.1 µM, sex of neuron culture: Male
# [5] = 1 µM, sex of neuron culture: Female
# [6] = 1 µM, sex of neuron culture: Male
# [7] = 10 µM, sex of neuron culture: Female
# [8] = 10 µM, sex of neuron culture: Male
SMILES,cell health score [1],cell health score [2],cell health score [3],cell health score [4],cell health score [5],cell health score [6],cell health score [7],cell health score [8]
CCc1cccc(C)c1N(C(=O)CCl)C(C)COC (configuration not stated) [Metolachlor],0.000617,0.000765,0.000751,0.000873,0.00115,0.000537,0.00131,0.000893
c1ccc2[nH]c(-c3cscn3)nc2c1 [Thiabendazole],0.000687,0.00049,0.00129,0.000898,0.000647,0.000539,0.0016,0.000568
CCOP(=S)(OCC)Oc1ccc([N+](=O)[O-])cc1 [Parathion],0.000878,0.000619,0.000815,0.000755,0.000624,0.000588,0.00155,0.000625
CO/C=C(/C(=O)OC)c1ccccc1Oc1cc(Oc2ccccc2C#N)ncn1 [Azoxystrobin],0.000479,0.000736,0.000916,0.000866,0.00114,0.000748,0.00807,0.004
C[n+]1ccc(-c2cc[n+](C)cc2)cc1 [Paraquat],0.000609,0.0007,0.000639,0.000854,0.000448,0.000635,0.00103,0.000707
CCOP(=O)(O)N(c1ccc(SC)c(C)c1)C(C)C [Fenamiphos],0.000604,0.000747,0.000616,0.000867,0.000803,0.00067,0.00123,0.000595
CCCN(CCC)c1c([N+](=O)[O-])cc(C(F)(F)F)c(N)c1[N+](=O)[O-] [Prodiamine],0.000718,0.00107,0.000774,0.00106,0.000801,0.000772,0.000868,0.000514
O=S1OCC2C(CO1)C1(Cl)C(Cl)=C(Cl)C2(Cl)C1(Cl)Cl (configuration not stated) [Endosulfan],0.000528,0.000682,0.000984,0.000787,0.000829,0.000625,0.00139,0.00059
CCCSP(=O)(OCC)Oc1ccc(Br)cc1Cl (configuration not stated) [Profenofos],0.000668,0.00118,0.00103,0.001,0.000946,0.000774,0.00184,0.000724
NC(CCCP(=O)(O)O)C(=O)O (racemic) [DL-AP5],0.00041,0.000657,0.000661,0.000622,0.000654,0.00102,0.000958,0.000765
C[N+]1(C)CCCCC1 [Mepiquat chloride],0.000597,0.000473,0.000869,0.00114,0.000617,0.000534,0.00122,0.000499
CCCCSP(=O)(SCCCC)SCCCC [Tribufos],0.000664,0.000999,0.000898,0.00095,0.000964,0.000594,0.000918,0.000562
CCOC(=O)C(C)OC(=O)c1cc(Oc2ccc(C(F)(F)F)cc2Cl)ccc1[N+](=O)[O-] (configuration not stated) [Lactofen],0.000546,0.000854,0.000921,0.000902,0.00112,0.000853,0.00111,0.00149
C/C(=N\C#N)N(C)Cc1ccc(Cl)nc1 [Acetamiprid],0.000661,0.000669,0.000736,0.000736,0.00121,0.000725,0.00208,0.000391
CCCCNC(=O)OCC#CI [3-Iodo-2-propynyl-N-butylcarbamate],0.00056,0.00075,0.000531,0.00128,0.000971,0.000892,0.00162,0.000472
CC(C)C1(C)N=C(c2ncccc2C(=O)O)NC1=O (configuration not stated) [Imazapyr],0.000484,0.00074,0.0013,0.000788,0.000914,0.000538,0.00111,0.000563
CC(C)=CC1C(C(=O)OCc2coc(Cc3ccccc3)c2)C1(C)C (configuration not stated) [Resmethrin],0.000842,0.000964,0.00105,0.000887,0.000919,0.000715,0.000807,0.000579
C#CCC1=C(C)C(OC(=O)C2C(C=C(C)C)C2(C)C)CC1=O (configuration not stated) [Prallethrin],0.000653,0.000826,0.000861,0.000947,0.000835,0.00066,0.00105,0.000517
Cc1cc(C)nc(Nc2ccccc2)n1 [Pyrimethanil],0.000695,0.000952,0.00116,0.000785,0.000794,0.000642,0.00102,0.00047
CC1(C)C(C(=O)OC(C#N)c2cccc(Oc3ccccc3)c2)C1(C)C (configuration not stated) [Fenpropathrin],0.000561,0.000832,0.00105,0.000731,0.00069,0.000748,0.000641,0.000526
O=C1C2CC=CCC2C(=O)N1SC(Cl)(Cl)Cl (configuration not stated) [Captan],0.00057,0.000805,0.00085,0.00107,0.000644,0.000555,0.00143,0.000669
"Cc1nn(C)c(Oc2ccccc2)c1C=NOCc1ccc(C(=O)OC(C)(C)C)cc1 [Fenpyroximate (Z,E)]",0.0149,0.0126,0.0108,0.0183,0.018,0.00813,0.0101,0.0112
c1ccc(Nc2ccccc2)cc1 [Diphenylamine],0.000572,0.00406,0.000717,0.00057,0.000706,0.00069,0.000789,0.000745
CC[C@@]1(O)C(=O)OCc2c1cc1n(c2=O)Cc2cc3c(CN(C)C)c(O)ccc3nc2-1 [Topotecan],0.000471,0.000872,0.002,0.0012,0.00106,0.00106,0.000913,0.00725
COC(=O)NC(=S)Nc1ccccc1NC(=S)NC(=O)OC [Thiophanate-methyl],0.000389,0.000611,0.000891,0.000747,0.000949,0.000658,0.00111,0.000486
CC(C)(C)[C@H](O)[C@H](Cc1ccc(Cl)cc1)n1cncn1 (racemic) [Paclobutrazol],0.00045,0.00165,0.000858,0.000992,0.000676,0.000862,0.00122,0.00053
COP(=S)(OC)Oc1ccc([N+](=O)[O-])c(C)c1 [Fenitrothion],0.000568,0.000903,0.000761,0.000823,0.00072,0.000594,0.00108,0.00072

SMILES,cell health score [1],cell health score [2],cell health score [3],cell health score [4],cell health score [5],cell health score [6],cell health score [7],cell health score [8]
CN(C)c1nc(=O)n(C2CCCCC2)c(=O)n1C [Hexazinone],0.000572,0.000694,0.000957,0.000686,0.000812,0.00104,0.0014,0.000675
CC(C1CC1)C(O)(Cn1cncn1)c1ccc(Cl)cc1 (configuration not stated) [Cyproconazole],0.00104,0.000749,0.0021,0.000756,0.000843,0.000675,0.00101,0.00074
CC1CCC(NC(=O)N(CCCl)N=O)CC1 (configuration not stated) [Semustine],0.0005,0.000625,0.000777,0.000817,0.000698,0.00073,0.00092,0.000565
N#Cc1cc(Br)c(O)c(Br)c1 [Bromoxynil],0.000464,0.000774,0.000734,0.000787,0.00103,0.000663,0.000996,0.000562
Cc1[nH]c(=O)n(C(C)(C)C)c(=O)c1Cl [Terbacil],0.000554,0.000647,0.000844,0.000922,0.000612,0.000615,0.00139,0.000643
COC(=O)C=C(C)OP(=O)(OC)OC [Mevinphos],0.000415,0.000604,0.000582,0.00074,0.00076,0.00066,0.00109,0.00235
CCCOC(=O)NCCCN(C)C [Propamocarb hydrochloride],0.000515,0.000773,0.000784,0.000751,0.00118,0.000704,0.00161,0.000808
c1cc[n+]2c(c1)-c1cccc[n+]1CC2 [Diquat dibromide monohydrate],0.000482,0.000763,0.00116,0.000752,0.00106,0.000756,0.00506,0.00308
Cc1ccc(-c2c(Cl)nc(C#N)n2S(=O)(=O)N(C)C)cc1 [Cyazofamid],0.000573,0.000682,0.000838,0.000676,0.000982,0.000801,0.000929,0.000689
COc1cc(OC)nc(Sc2cccc(Cl)c2C(=O)O)n1 [Pyrithiobac-sodium],0.000605,0.000657,0.000964,0.000922,0.00103,0.000719,0.00102,0.000805
Nc1c(Cl)cc([N+](=O)[O-])cc1Cl [Dicloran],0.00053,0.000754,0.000754,0.000838,0.001,0.000726,0.00126,0.000774
COc1cc(Cl)c(OC)cc1Cl [Chloroneb],0.000921,0.000887,0.000549,0.000662,0.000859,0.000562,0.000821,0.000527
CC(C)N(C(=O)SCC(Cl)=C(Cl)Cl)C(C)C [Tri-allate],0.000439,0.0013,0.000732,0.000552,0.000707,0.000732,0.000455,0.00078
Cc1ccc(/N=C/N(C)/C=N/c2ccc(C)cc2C)c(C)c1 [Amitraz],0.000662,0.000569,0.000612,0.00142,0.000763,0.000729,0.00127,0.000675
Cl[C@H]1[C@H](Cl)[C@@H](Cl)[C@@H](Cl)[C@H](Cl)[C@H]1Cl [Lindane],0.000947,0.000582,0.00112,0.00108,0.000564,0.000698,0.000689,0.000614
COP(=S)(OC)SCn1nnc2ccccc2c1=O [Azinphos-methyl],0.000565,0.000813,0.00139,0.000843,0.000933,0.00056,0.000951,0.000522
CC(C)Oc1cc(-n2nc(C(C)(C)C)oc2=O)c(Cl)cc1Cl [Oxadiazon],0.000702,0.000849,0.000789,0.00108,0.000887,0.000756,0.0013,0.000492
CCOC(=O)C(C)Oc1ccc(Oc2cnc3cc(Cl)ccc3n2)cc1 (configuration not stated) [Quizalofop-ethyl],0.000544,0.000694,0.000584,0.000607,0.000581,0.000462,0.000694,0.000523
CCOC(=O)C(Cl)Cc1cc(-n2nc(C)n(C(F)F)c2=O)c(F)cc1Cl (configuration not stated) [Carfentrazone-ethyl],0.000528,0.00109,0.00111,0.00106,0.00117,0.00118,0.00128,0.000877
COc1nn(CSP(=S)(OC)OC)c(=O)s1 [Methidathion],0.000398,0.000869,0.00175,0.000912,0.000851,0.000591,0.00141,0.000468
CO/N=C(/C1=NOCCO1)c1ccccc1Oc1ncnc(Oc2ccccc2Cl)c1F [Fluoxastrobin],0.000406,0.00218,0.000648,0.00112,0.00159,0.00141,0.0136,0.00696
CCN(CC)c1nc(C)cc(OP(=S)(OC)OC)n1 [Pirimiphos-methyl],0.000589,0.000718,0.000924,0.000918,0.00103,0.000569,0.00156,0.00065
Nc1nc(N)nc(NC2CC2)n1 [Cyromazine],0.000621,0.000907,0.000901,0.00107,0.000945,0.000601,0.00127,0.00158
CC(C)C1(C)N=C(c2nc3ccccc3cc2C(=O)O)NC1=O (configuration not stated) [Imazaquin],0.00079,0.000848,0.000619,0.000709,0.000872,0.00039,0.00123,0.000552
CCOP(=S)(OCC)Oc1cc(C)nc(C(C)C)n1 [Diazinon],0.000543,0.000578,0.00072,0.000592,0.00116,0.000479,0.00133,0.000575
CCOC(=O)NCCOc1ccc(Oc2ccccc2)cc1 [Fenoxycarb],0.000589,0.000665,0.00197,0.000898,0.000902,0.000489,0.00117,0.000632
C[S+]([O-])CCCCN=C=S (configuration not stated) [Sulforaphane],0.00042,0.000945,0.00131,0.00123,0.000908,0.000428,0.0015,0.00115

# 4 of these compounds, reformatted.
SMILES	cell health score [1]	cell health score [2]	cell health score [3]	cell health score [4]	cell health score [5]	cell health score [6]	cell health score [7]	cell health score [8]
CN(C)c1nc(=O)n(C2CCCCC2)c(=O)n1C [Hexazinone]	0.000572	0.000694	0.000957	0.000686	0.000812	0.00104	0.0014	0.000675
COc1cc(Cl)c(OC)cc1Cl [Chloroneb]	0.000921	0.000887	0.000549	0.000662	0.000859	0.000562	0.000821	0.000527
CC(C)Oc1cc(-n2nc(C(C)(C)C)oc2=O)c(Cl)cc1Cl [Oxadiazon]	0.000702	0.000849	0.000789	0.00108	0.000887	0.000756	0.0013	0.000492
CCOC(=O)NCCOc1ccc(Oc2ccccc2)cc1 [Fenoxycarb]	0.000589	0.000665	0.00197	0.000898	0.000902	0.000489	0.00117	0.000632
